{"sequences": {"note": "Amino acid sequences for entries named in this document (tags omitted). Residues count along the entry.", "UniProt Q8BWG9": "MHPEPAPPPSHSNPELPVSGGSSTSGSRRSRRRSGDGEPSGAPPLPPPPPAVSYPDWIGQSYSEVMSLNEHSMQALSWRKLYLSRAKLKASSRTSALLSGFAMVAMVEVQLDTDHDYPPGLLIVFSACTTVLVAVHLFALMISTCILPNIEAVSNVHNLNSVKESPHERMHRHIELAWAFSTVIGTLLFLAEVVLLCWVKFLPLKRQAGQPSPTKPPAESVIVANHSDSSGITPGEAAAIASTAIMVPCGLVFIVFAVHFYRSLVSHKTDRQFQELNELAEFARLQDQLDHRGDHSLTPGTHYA", "UniProt P70302, residues 23-685": "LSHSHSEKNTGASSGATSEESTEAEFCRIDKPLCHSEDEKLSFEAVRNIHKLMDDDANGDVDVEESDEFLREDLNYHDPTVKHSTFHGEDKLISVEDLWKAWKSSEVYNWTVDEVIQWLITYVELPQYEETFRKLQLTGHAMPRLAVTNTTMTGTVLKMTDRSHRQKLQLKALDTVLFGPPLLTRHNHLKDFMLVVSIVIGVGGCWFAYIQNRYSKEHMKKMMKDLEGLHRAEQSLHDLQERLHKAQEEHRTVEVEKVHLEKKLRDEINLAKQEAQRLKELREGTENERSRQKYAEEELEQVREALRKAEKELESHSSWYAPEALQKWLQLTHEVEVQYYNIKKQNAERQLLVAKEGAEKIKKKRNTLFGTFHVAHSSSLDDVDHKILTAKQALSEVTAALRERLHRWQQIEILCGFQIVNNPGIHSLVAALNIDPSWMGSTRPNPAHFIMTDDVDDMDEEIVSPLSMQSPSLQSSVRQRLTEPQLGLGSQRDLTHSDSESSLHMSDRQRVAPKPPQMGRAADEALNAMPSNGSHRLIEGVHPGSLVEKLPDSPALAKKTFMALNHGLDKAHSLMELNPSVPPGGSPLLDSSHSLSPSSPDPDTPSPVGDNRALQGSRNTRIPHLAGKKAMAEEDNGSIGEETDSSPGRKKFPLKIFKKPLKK"}, "source": "paper PMC11927589", "molecular_target": "Orai1 (mouse (endogenous in mouse neutrophils)) (UniProt Q8BWG9)", "assay": "proximity ligation; Duolink In Situ Red Starter Kit Mouse/Rabbit; endogenous proteins in purified mouse neutrophils adhered to PLL, fixed, permeabilized, primary antibody pairs overnight; WT compared with Stim1/2-deficient neutrophils", "note": "Results are given in words; binding and its absence hold for the method and conditions named. Binding seen in cells or lysates may run through a third protein. Some results given as binding are weak or reduced against the parent protein; the word gives no strength."}
{"substance": "Stim1 (stromal interaction molecule 1) (from UniProt P70302 23-685)", "values": [{"measurement": "binding", "value": "binds"}]}
